No constants are given. Whether binding was seen depends on the method and setting. For some of these results: Binding can be weak; no strength is given.
Experiments:
Test in all cases: two-hybrid
[1] = molecular target: N-terminal domain (A/B) of TR2, two-hybrid bait
[2] = molecular target: N-terminal domain (A/B) of TR4, two-hybrid bait
[3] = molecular target: ligand binding domain (LBD; EF domains) of TR2, two-hybrid bait
[4] = molecular target: ligand binding domain (LBD; EF domains) of TR4, two-hybrid bait

- binding [1]: no binding
- binding [2]: binds
- binding [3]: binds
- binding [4]: binds
B1: NCoR1 carboxy-terminal (C) domain (NCoR1-C) (domain or fragment, UniProt Q60974 1630-2453)
chain: QVNLRPDVTRGLSPREQPLGLPYPATRGIIDLTNMPPTILVPHAGGTSTPPMDRITYIPGTQVTFPPRPYNAASLSPGHPTHLAAAASAEREREREREKERERERERERERERERIAAAPADLYLRPGSEQPGRPGSHGYVRSPSPSVRTQETILQQRPSVFQGTNGTSVITPLDPTAQLRIMPLPSGGPSISQGLPASRYNTAADALAALVDAAASAPQMDVSKTKESKHEAARLEENLRSRSAAVSEQQQLEQKNLEVEKRSVQCVCTSSALPSGKAQPHASVVYSEAGKDKGPPPKSRYEEELRTRGKTTITAANFIDVIITRQIASDKDARERGSQSSDSSSSLSSHRYETASDAIEVISPASSPAPPQEKPQAYQPDMVKANQAENESTRQYEGPLHHYRSQQESPSPQQQPPLPPSSQSEGMGQVPRTHRLITLADHICQIITQDFARNQVPSQASTSTFQTSPSALSSTPVRTKTSSRYSPESQSQTVLHPRPGPRVSPENLVDKSRGSRPGKSPERSHIPSEPYEPISPPQGPAVHEKQDSMLLLSQRGVDPAEQRSDSRSPGSISYLPSFFTKLESTSPMVKSKKQEIFRKLNSSGGGDSDMAAAQPGTEIFNLPAVTTSGAVSSRSHSFADPASNLGLEDIIRKALMGSFDDKVEDHGVVMSHPVGIMPGSASTSVVTSSEARRDEGEPSPHAGVCKPKLINKSNSRKSKSPIPGQSYLGTERPSSVSSVHSEGDYHRQTPGWAWEDRPSSTGSTQFPYNPLTIRMLSSTPPTQIACAPSAITQAAPHQQNRIWEREPAPLLSAQYETLSDSDD

Source: doi:10.1101/346619
